Literature values as cited in patent publication US5679695A, “Aryl and heteroaryl compounds having anti-retrovirus activity” (The University of Connecticut, priority 1995, dated 1997).
For at least one compound, name, drawing or mass did not settle the structure.

Test system: HIV
Settings: cited from earlier work

SMILES: Cc1cn([C@H]2C[C@H](N=[N+]=[N-])[C@@H](CO)O2)c(=O)[nH]c1=O [AZT, azido thymidine]
- inhibiting macrophage infection or modulating HIV production from infected macrophages: does not appear to be completely effective
